Test results reported in patent US20240293351A1, “METHODS OF ADMINISTERING SYNTHETIC TRITERPENOIDS” (REATA PHARMACEUTICALS HOLDINGS, LLC, priority 2020, published 2024).
At least one structure is not confirmed: it was looked up by name or label, or the drawing left a doubt.

Conditions: 20 mg once daily

For `COC(=O)[C@]12CCC(C)(C)C[C@H]1[C@H]1C(=O)C=C3[C@@]4(C)C=C(C#N)C(=O)C(C)(C)[C@@H]4CC[C@@]3(C)[C@]1(C)CC2` [Bardoxolone methyl, methyl-2-cyano-3,12-dioxooleana-1,9-dien-28-oic acid], the “Effect on eGFR” value was “increases in eGFR that occurred by Week 4 of treatment and remained above baseline through Week 48”.
